Test results reported in US12486290B2, “Isoindolinone and indazole compounds for the degradation of EGFR” (C4 THERAPEUTICS, INC., priority 2019, dated 2025).
The match of structure and compound is tentative.

By UniProt entry, the sequences of proteins in these tests, tags left out. Residues count along the entry.
UniProt P00533, 25-1210 L858R limits assumed: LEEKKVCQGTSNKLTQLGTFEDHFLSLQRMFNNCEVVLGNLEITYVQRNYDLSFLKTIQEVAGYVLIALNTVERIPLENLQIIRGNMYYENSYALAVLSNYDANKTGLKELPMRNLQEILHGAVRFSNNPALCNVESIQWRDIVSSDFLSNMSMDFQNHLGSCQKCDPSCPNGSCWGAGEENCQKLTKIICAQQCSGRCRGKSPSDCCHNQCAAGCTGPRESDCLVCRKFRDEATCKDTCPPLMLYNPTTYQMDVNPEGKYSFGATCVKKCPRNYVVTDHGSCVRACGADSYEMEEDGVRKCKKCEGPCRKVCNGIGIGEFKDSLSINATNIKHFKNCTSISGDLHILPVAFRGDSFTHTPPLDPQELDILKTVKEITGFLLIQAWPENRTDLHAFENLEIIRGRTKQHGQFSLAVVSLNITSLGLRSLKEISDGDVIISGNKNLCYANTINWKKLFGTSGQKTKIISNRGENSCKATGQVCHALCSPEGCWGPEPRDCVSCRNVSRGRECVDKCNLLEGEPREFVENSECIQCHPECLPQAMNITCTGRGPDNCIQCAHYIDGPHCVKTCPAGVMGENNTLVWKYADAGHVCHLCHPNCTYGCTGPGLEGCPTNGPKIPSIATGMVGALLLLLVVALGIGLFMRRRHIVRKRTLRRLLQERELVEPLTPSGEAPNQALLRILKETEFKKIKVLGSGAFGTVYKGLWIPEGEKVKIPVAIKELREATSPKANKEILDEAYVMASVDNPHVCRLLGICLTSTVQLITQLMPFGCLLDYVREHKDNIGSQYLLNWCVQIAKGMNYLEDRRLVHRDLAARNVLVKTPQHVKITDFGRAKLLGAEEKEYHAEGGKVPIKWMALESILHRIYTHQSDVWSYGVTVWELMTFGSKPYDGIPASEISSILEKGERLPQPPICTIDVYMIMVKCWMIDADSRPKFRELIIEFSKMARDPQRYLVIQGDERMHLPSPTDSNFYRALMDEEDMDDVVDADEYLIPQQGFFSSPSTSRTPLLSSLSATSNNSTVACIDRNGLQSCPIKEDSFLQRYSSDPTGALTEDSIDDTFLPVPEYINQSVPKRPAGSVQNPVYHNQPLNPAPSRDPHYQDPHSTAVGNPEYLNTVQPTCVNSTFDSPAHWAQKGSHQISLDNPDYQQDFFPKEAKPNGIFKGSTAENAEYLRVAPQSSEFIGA
UniProt P00533, 25-1210 T790M/L858R limits assumed: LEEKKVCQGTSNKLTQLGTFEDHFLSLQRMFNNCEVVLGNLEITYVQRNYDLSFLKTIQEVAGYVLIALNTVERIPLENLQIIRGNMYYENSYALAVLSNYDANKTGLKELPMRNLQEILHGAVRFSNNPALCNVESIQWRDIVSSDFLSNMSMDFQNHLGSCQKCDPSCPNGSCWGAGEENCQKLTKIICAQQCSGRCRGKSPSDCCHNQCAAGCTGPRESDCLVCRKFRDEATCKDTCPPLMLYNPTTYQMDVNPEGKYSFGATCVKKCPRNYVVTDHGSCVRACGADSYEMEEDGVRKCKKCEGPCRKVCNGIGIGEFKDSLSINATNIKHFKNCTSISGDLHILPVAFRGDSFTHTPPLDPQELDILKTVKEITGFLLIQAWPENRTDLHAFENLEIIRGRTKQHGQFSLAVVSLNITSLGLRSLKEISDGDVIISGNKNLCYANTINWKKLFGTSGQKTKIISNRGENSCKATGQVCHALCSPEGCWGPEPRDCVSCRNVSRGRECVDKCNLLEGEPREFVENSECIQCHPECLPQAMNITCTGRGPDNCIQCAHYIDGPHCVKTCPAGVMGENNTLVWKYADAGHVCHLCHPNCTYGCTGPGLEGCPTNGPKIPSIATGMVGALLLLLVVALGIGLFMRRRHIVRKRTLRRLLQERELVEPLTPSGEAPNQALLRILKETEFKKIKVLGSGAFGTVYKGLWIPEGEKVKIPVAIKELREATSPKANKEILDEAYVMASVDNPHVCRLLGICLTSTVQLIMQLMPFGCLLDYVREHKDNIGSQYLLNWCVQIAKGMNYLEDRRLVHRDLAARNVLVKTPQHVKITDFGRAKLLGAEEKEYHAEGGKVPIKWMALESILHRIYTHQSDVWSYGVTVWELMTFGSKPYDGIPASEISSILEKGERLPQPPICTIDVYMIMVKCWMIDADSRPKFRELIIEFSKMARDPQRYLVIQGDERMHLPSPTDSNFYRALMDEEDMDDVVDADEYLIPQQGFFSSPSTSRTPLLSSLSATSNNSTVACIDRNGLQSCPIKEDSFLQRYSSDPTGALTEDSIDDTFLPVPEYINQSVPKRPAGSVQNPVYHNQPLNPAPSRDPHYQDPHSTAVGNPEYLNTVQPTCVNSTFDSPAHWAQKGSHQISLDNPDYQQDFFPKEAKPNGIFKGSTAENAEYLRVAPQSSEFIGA
UniProt P00533, 25-1210 T790M/C797S/L858R limits assumed: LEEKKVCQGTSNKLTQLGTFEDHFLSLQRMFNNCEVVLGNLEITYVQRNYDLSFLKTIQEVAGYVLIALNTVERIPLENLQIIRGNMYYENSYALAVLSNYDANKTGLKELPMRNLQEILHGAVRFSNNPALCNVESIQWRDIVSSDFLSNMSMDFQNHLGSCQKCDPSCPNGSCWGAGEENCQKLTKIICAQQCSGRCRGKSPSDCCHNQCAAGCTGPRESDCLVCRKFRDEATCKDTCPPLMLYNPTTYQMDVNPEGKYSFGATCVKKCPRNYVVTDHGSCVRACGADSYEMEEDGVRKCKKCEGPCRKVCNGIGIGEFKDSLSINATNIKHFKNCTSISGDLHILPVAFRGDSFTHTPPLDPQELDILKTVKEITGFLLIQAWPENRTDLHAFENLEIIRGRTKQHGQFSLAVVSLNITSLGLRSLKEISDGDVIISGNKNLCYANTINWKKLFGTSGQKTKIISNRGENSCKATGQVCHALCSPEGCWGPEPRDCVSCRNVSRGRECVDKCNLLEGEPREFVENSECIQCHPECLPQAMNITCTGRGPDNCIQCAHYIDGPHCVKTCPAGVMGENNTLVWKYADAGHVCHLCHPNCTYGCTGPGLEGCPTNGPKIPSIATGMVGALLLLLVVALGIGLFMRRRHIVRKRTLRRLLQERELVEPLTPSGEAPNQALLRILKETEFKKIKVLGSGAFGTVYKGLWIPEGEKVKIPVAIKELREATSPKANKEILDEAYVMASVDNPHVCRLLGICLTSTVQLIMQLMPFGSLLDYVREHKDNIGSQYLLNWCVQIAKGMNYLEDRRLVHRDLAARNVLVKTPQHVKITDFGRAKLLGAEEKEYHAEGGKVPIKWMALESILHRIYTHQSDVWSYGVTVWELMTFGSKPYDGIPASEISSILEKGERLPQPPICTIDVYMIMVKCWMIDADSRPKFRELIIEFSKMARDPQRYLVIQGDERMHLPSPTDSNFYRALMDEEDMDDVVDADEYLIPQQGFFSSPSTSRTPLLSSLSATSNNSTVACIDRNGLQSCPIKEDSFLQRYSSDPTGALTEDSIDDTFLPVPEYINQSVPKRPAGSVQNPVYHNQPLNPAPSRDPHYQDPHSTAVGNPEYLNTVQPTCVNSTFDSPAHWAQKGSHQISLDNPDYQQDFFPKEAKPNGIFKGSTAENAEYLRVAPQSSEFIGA

Experiments:
[1] = molecular target: EGFR T790M/L858R/C797S (NCI-H1975+CS cells) (Homo sapiens, UniProt P00533, C797S/L858R/T790M); test: EGFR (L858R) degradation analysis, Total EGFR (L858R) HTRF, NCI-H1975+CS cells; details: read-out: H1975 C797S clone EGFR DC50, 6 hours
Text: (§1) NCI-H1975 (harboring EGFR heterozygous T790M/L858R mutations) and NCI-H3255 (harboring EGFR heterozygous L858R mutation) were purchased from ATCC and NCI, respectively. NCI-H1975+CS (harboring EGFR heterozygous T/790M/L858R/C797S mutations) was generated using CRISPR technology to introduce the additional C797S mutation by Horizon Discovery. RPMI 1640 no-phenol red medium and fetal bovine serum (FBS) were purchased from Gibco (Grand Island, NY, USA). Cell culture flasks and 384-well microplates were acquired from VWR (Radnor, PA, USA). Total EGFR (L858R) HTRF assay kits were purchased from Cisbio (Bedford, MA, USA).
(§2) Degradation of EGFR protein containing L858R mutation was determined based on quantification of FRET signal using Total EGFR (L858R) HTRF assay kit. Test compounds were added to the 384-well plate from a top concentration of 10 μM with 11 points, half log titration in duplicates. NCI-H1975, NCI-H1975+CS or NCI-H3255 cells were added into 384-well plates at a cell density of 10000, 10000 or 1000 cells per well, respectively. The plates were kept at 37° C. with 5% CO2 for 6 hours. Cells treated in the absence of the test compound were the negative control. Positive control was set by wells containing all reagents but no cells. FRET signal was acquired on EnVision™ Multilabel Reader (PerkinElmer, Santa Clara, CA, USA).

[2] = molecular target: EGFR L858R (NCI-H3255 cells) (Homo sapiens, UniProt P00533, L858R); test: EGFR (L858R) degradation analysis, Total EGFR (L858R) HTRF, NCI-H3255 cells; details: read-out: H3255 EGFR DC50, 6 hours
Text: as §1, §2

[3] = molecular target: EGFR T790M/L858R (NCI-H1975 cells) (Homo sapiens, UniProt P00533, L858R/T790M); test: EGFR (L858R) degradation analysis, Total EGFR (L858R) HTRF, NCI-H1975 cells; details: read-out: H1975 EGFR DC50, 6 hours
Text: as §1, §2

Compound N#Cc1cc(NC2CCC(=O)NC2=O)ccc1C1CCN(CC(=O)N2CCN(c3ccc(-c4cc(F)c5c(c4)C(=O)N(C(C(=O)Nc4nccs4)c4ncn6c4CCC6)C5)cc3)CC2)CC1 (stereo not drawn) has a DC50 [1] of 24 nM, a DC50 [2] of 8 nM and a DC50 [3] of 30 nM.
